Test results as given in publication PMC2816692, “Structural and Biochemical Characterization of SrcA, a Multi-Cargo Type III Secretion Chaperone in Salmonella Required for Pathogenic Association with a Host” (PLoS Pathogens, 2010).
These are yes or no findings as the source states them, for the method shown. In cells and extracts the contact can be indirect. These calls come from enrichment with a bait or labelling near it, and not all partners need be listed. A no says only that the protein was not detected with the bait.

By UniProt entry, the sequences of proteins in these tests, tags left out. Where a name states a change or a piece, a line headed by the entry shows the natural chain unless it says otherwise.
UniProt Q8ZNP3: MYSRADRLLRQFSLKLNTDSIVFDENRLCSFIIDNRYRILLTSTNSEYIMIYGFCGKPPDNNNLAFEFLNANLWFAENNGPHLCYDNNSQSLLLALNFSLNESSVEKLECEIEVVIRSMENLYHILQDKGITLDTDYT

Biological target: SrcA-FLAG (chromosomal srcA-FLAG allelic replacement) (Salmonella enterica serovar Typhimurium strain SL1344) (UniProt Q8ZNP3)
Test: affinity purification with mass spectrometry; anti-FLAG M2-agarose immunoprecipitation of SrcA-FLAG from mixed heavy and light SILAC lysates of S. Typhimurium grown in SILAC-LPM; 16 h at 4°C; quantitative LC-MS/MS

B1: SseK2 (STM2137) (protein, UniProt Q8ZNP4 1-348)
chain: MARFNAAFTRIKIMFSRIRGLISCQSNTQTIAPTLSPPSSGHVSFAGIDYPLLPLNHQTPLVFQWFERNPDRFGQNEIPIINTQKNPYLNNIINAAIIEKERIIGIFVDGDFSKGQRKALGKLEQNYRNIKVIYNSDLNYSMYDKKLTTIYLENITKLEAQSASERDEVLLNGVKKSLEDVLKNNPEETLISSHNKDKGHLWFDFYRNLFLLKGSDAFLEAGKPGCHHLQPGGGCIYLDADMLLTDKLGTLYLPDGIAIHVSRKDNHVSLENGIIAVNRSEHPALIKGLEIMHSKPYGDPYNDWLSKGLRHYFDGSHIQDYDAFCDFIEFKHENIIMNTSSLTASSWR
Question: How did the binding turn out when B1 was run?
Answer: The binding was “no binding”.
